Source: patent publication US20230002497A1 (INSERM INSTITUT NATIONAL DE LA SANTE ET DE LA RECHERCHE …, published 2023)
Results are given in words; binding and its absence hold for the method and conditions named. Some results given as binding are weak or reduced against the parent protein; the word gives no strength.

Columns and labels:
[1] = molecular target: T1, recombinant mouse IL-20Rb (mouse) (UniProt E9Q9A6); assay: conclusion of the example (ELISA, FIG. 8)
T1 sequence: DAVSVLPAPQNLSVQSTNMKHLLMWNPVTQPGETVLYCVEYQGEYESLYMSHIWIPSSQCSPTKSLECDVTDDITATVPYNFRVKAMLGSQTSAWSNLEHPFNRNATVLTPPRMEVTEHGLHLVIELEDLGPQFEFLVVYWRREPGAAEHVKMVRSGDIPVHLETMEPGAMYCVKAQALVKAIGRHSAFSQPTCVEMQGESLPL

[2] = molecular target: T1, recombinant mouse IL-20Rb (mouse); assay: ELISA on coated recombinant IL-20Rb (FIG. 8)

binding [1]: binds | binding [2]: binds
B1: B7 antibody (native B7 clone), human anti-IL-20Rb antibody (antibody, mouse IgG2a, V domains shown)
VH: EVQLVESGGSLVKPGGSLRLSCAASGFTFSNYSMNWVRQAPGKGLEWISYISGSSRYISYADFVKGRFTISRDNATNSLYLQMNSLRAEDTAVYYCVRSYYGMDVWGRGTLVTVSS
VL: QSVLTQPASVSGSPGQSITISCAGTSSDVGGNYYVSWYQQHPGKAPKLMIYGDSYRPSGVSNRFSGSKSGNTASLTISGLQAEDEADYYCSSYTYYSTRVFGGGTKLAVLG
